Experimental data taken from the M2OR odorant receptor database.
The list shows a part of the results, in another mix than the full data. Calls are pooled over several reports, among them a noisy single-well screen. The list shows a part of the results.

Assays:
Details in all cases: stereoisomer not certain
OR7D4 = tested on: T1, OR7D4
T1 sequence (whole entry): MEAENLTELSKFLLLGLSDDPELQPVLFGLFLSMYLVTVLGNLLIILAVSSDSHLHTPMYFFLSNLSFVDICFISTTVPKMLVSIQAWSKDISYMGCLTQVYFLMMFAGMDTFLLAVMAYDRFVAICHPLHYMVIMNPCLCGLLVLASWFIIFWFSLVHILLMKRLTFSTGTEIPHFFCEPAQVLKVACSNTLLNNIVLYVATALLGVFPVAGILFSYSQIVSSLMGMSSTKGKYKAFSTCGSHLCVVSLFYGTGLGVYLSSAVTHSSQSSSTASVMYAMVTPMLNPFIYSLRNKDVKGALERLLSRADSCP
How it was run: (§1)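 Each receptor–molecule pair is labelled responsive or non-responsive (inactive) according to whether the original authors judged the measured signal statistically different from baseline. The data were taken from the main text and supplementary material of published papers and checked for typos and inconsistencies. Assay methods differed by source, with transient luciferase assays in mammalian cell lines being common.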

OR7G1 (Homo sapiens) = biological target: T2, OR7G1 (Homo sapiens) (UniProt Q8NGA0)
T2 sequence (whole entry): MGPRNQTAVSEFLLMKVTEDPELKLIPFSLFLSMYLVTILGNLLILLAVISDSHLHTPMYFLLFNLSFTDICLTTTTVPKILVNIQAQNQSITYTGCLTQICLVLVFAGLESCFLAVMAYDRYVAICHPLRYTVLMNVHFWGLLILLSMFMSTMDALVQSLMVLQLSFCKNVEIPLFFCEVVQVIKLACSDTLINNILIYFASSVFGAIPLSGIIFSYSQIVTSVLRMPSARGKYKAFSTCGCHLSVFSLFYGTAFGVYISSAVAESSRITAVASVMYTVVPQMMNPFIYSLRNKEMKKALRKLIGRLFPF
How it was run: as §1

OR7G2 (Homo sapiens) = biological target: T3, OR7G2 (Homo sapiens) (UniProt Q8NG99)
T3 sequence (whole entry): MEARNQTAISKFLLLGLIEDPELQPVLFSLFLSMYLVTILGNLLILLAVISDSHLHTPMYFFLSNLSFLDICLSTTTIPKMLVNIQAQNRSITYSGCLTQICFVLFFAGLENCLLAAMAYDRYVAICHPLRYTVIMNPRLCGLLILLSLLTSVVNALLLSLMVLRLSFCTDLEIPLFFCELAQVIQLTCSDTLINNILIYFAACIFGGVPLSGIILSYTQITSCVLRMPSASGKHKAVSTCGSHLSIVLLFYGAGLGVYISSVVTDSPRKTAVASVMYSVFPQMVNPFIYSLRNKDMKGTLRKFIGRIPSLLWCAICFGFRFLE
How it was run: as §1

OR7G2 = tested on: T4, OR7G2
T4 sequence (whole entry): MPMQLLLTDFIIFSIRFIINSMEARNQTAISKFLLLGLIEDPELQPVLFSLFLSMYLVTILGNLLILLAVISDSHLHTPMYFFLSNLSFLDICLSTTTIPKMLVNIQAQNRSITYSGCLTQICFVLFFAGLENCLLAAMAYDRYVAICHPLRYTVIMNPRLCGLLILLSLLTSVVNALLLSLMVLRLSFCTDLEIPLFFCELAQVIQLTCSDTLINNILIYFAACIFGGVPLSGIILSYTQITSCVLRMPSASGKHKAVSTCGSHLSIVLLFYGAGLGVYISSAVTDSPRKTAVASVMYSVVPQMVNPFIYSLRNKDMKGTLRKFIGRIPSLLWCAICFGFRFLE
How it was run: as §1

OR7G3 (Homo sapiens) = biological target: T5, OR7G3 (Homo sapiens) (UniProt Q8NG95)
T5 sequence (whole entry): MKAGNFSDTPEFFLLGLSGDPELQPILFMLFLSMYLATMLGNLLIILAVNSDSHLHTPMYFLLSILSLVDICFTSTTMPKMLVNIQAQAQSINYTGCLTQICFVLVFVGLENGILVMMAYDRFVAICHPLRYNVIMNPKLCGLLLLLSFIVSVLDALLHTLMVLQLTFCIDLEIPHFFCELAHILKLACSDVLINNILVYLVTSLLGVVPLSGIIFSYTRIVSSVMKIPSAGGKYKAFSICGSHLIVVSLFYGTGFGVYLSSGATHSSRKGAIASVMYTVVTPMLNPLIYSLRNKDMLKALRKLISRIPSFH
How it was run: as §1
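Note: active if original authors judged signal statistically different from baseline.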

C=CC(C)(O)CCC=C(C)C (configuration not stated)
odorant receptor agonist call (OR7D4): inactive | odorant receptor agonist call (OR7G1 (Homo sapiens)): inactive | odorant receptor agonist call (OR7G2 (Homo sapiens)): inactive | odorant receptor agonist call (OR7G2): inactive | odorant receptor agonist call (OR7G3 (Homo sapiens)): inactive

CC12CCC(C1)C(C)(C)C2=O (configuration not stated)
odorant receptor agonist call (OR7D4): inactive | odorant receptor agonist call (OR7G1 (Homo sapiens)): inactive | odorant receptor agonist call (OR7G2 (Homo sapiens)): inactive | odorant receptor agonist call (OR7G2): inactive | odorant receptor agonist call (OR7G3 (Homo sapiens)): inactive

CCCCCCCCCCC=O
odorant receptor agonist call (OR7D4): inactive | odorant receptor agonist call (OR7G1 (Homo sapiens)): inactive | odorant receptor agonist call (OR7G2 (Homo sapiens)): inactive | odorant receptor agonist call (OR7G2): inactive | odorant receptor agonist call (OR7G3 (Homo sapiens)): inactive

CCCCCCC=O
odorant receptor agonist call (OR7D4): inactive

CC(=O)OC(C)(C)C1CC=C(C)CC1 (configuration not stated)
odorant receptor agonist call (OR7D4): inactive | odorant receptor agonist call (OR7G1 (Homo sapiens)): inactive | odorant receptor agonist call (OR7G2 (Homo sapiens)): inactive | odorant receptor agonist call (OR7G2): inactive | odorant receptor agonist call (OR7G3 (Homo sapiens)): inactive

c1cnccn1
odorant receptor agonist call (OR7D4): inactive | odorant receptor agonist call (OR7G1 (Homo sapiens)): inactive | odorant receptor agonist call (OR7G2 (Homo sapiens)): inactive | odorant receptor agonist call (OR7G2): inactive | odorant receptor agonist call (OR7G3 (Homo sapiens)): inactive

CCCCCCCOC(C)=O
odorant receptor agonist call (OR7D4): inactive | odorant receptor agonist call (OR7G1 (Homo sapiens)): inactive | odorant receptor agonist call (OR7G2 (Homo sapiens)): inactive | odorant receptor agonist call (OR7G2): inactive | odorant receptor agonist call (OR7G3 (Homo sapiens)): inactive

CC(=O)OC1CC2CCC1(C)C2(C)C (configuration not stated)
odorant receptor agonist call (OR7D4): inactive | odorant receptor agonist call (OR7G1 (Homo sapiens)): inactive | odorant receptor agonist call (OR7G2 (Homo sapiens)): inactive | odorant receptor agonist call (OR7G2): inactive | odorant receptor agonist call (OR7G3 (Homo sapiens)): inactive

COc1ccccc1O
odorant receptor agonist call (OR7D4): inactive | odorant receptor agonist call (OR7G1 (Homo sapiens)): inactive | odorant receptor agonist call (OR7G2 (Homo sapiens)): inactive | odorant receptor agonist call (OR7G2): inactive | odorant receptor agonist call (OR7G3 (Homo sapiens)): inactive

CCCCCCOC(=O)CCC
odorant receptor agonist call (OR7D4): inactive | odorant receptor agonist call (OR7G1 (Homo sapiens)): inactive | odorant receptor agonist call (OR7G2 (Homo sapiens)): inactive | odorant receptor agonist call (OR7G2): inactive | odorant receptor agonist call (OR7G3 (Homo sapiens)): inactive

COC(=O)c1ccccc1
odorant receptor agonist call (OR7G1 (Homo sapiens)): inactive | odorant receptor agonist call (OR7G2 (Homo sapiens)): inactive | odorant receptor agonist call (OR7G2): inactive | odorant receptor agonist call (OR7G3 (Homo sapiens)): inactive

O=C1CCCCCCCCCCCC(=O)OCCO1
odorant receptor agonist call (OR7D4): inactive | odorant receptor agonist call (OR7G1 (Homo sapiens)): inactive | odorant receptor agonist call (OR7G2 (Homo sapiens)): inactive | odorant receptor agonist call (OR7G2): inactive | odorant receptor agonist call (OR7G3 (Homo sapiens)): inactive

O=C1CCCCC1
odorant receptor agonist call (OR7G1 (Homo sapiens)): inactive | odorant receptor agonist call (OR7G2 (Homo sapiens)): inactive | odorant receptor agonist call (OR7G2): inactive | odorant receptor agonist call (OR7G3 (Homo sapiens)): inactive

CC(C)(C)c1ccc(CCC=O)cc1
odorant receptor agonist call (OR7D4): inactive | odorant receptor agonist call (OR7G1 (Homo sapiens)): inactive | odorant receptor agonist call (OR7G2 (Homo sapiens)): inactive | odorant receptor agonist call (OR7G2): inactive | odorant receptor agonist call (OR7G3 (Homo sapiens)): inactive

c1ccc(Oc2ccccc2)cc1
odorant receptor agonist call (OR7D4): inactive | odorant receptor agonist call (OR7G1 (Homo sapiens)): inactive | odorant receptor agonist call (OR7G2 (Homo sapiens)): inactive | odorant receptor agonist call (OR7G2): inactive | odorant receptor agonist call (OR7G3 (Homo sapiens)): inactive

CC1COCc2cc3c(cc21)C(C)(C)C(C)C3(C)C (configuration not stated)
odorant receptor agonist call (OR7D4): inactive | odorant receptor agonist call (OR7G1 (Homo sapiens)): inactive | odorant receptor agonist call (OR7G2 (Homo sapiens)): inactive | odorant receptor agonist call (OR7G2): active | odorant receptor agonist call (OR7G3 (Homo sapiens)): active

CCCCCC(=O)O
odorant receptor agonist call (OR7D4): inactive | odorant receptor agonist call (OR7G1 (Homo sapiens)): inactive | odorant receptor agonist call (OR7G2 (Homo sapiens)): inactive | odorant receptor agonist call (OR7G2): inactive | odorant receptor agonist call (OR7G3 (Homo sapiens)): inactive

CCCCCCCCOC(C)=O
odorant receptor agonist call (OR7D4): inactive | odorant receptor agonist call (OR7G1 (Homo sapiens)): inactive | odorant receptor agonist call (OR7G2 (Homo sapiens)): inactive | odorant receptor agonist call (OR7G2): inactive | odorant receptor agonist call (OR7G3 (Homo sapiens)): inactive

CC(=O)c1ccccc1
odorant receptor agonist call (OR7G1 (Homo sapiens)): inactive | odorant receptor agonist call (OR7G2 (Homo sapiens)): inactive | odorant receptor agonist call (OR7G2): inactive | odorant receptor agonist call (OR7G3 (Homo sapiens)): inactive

O=C1CCCCCCCCCCCCCCO1
odorant receptor agonist call (OR7D4): inactive | odorant receptor agonist call (OR7G1 (Homo sapiens)): inactive | odorant receptor agonist call (OR7G2 (Homo sapiens)): inactive | odorant receptor agonist call (OR7G2): inactive | odorant receptor agonist call (OR7G3 (Homo sapiens)): inactive

CCCCCOC(C)=O
odorant receptor agonist call (OR7G1 (Homo sapiens)): inactive | odorant receptor agonist call (OR7G2 (Homo sapiens)): inactive | odorant receptor agonist call (OR7G2): inactive | odorant receptor agonist call (OR7G3 (Homo sapiens)): inactive

CC1=CCC(C(C)(C)O)CC1 (configuration not stated)
odorant receptor agonist call (OR7D4): inactive | odorant receptor agonist call (OR7G1 (Homo sapiens)): inactive | odorant receptor agonist call (OR7G2 (Homo sapiens)): inactive | odorant receptor agonist call (OR7G2): inactive | odorant receptor agonist call (OR7G3 (Homo sapiens)): inactive

CC(C)C(=O)O
odorant receptor agonist call (OR7D4): inactive | odorant receptor agonist call (OR7G1 (Homo sapiens)): inactive | odorant receptor agonist call (OR7G2 (Homo sapiens)): inactive | odorant receptor agonist call (OR7G2): inactive | odorant receptor agonist call (OR7G3 (Homo sapiens)): inactive

O=CCc1ccccc1
odorant receptor agonist call (OR7D4): inactive | odorant receptor agonist call (OR7G1 (Homo sapiens)): inactive | odorant receptor agonist call (OR7G2 (Homo sapiens)): inactive | odorant receptor agonist call (OR7G2): inactive | odorant receptor agonist call (OR7G3 (Homo sapiens)): inactive
